No constants are given. Whether binding was seen depends on the method and setting. Some results given as binding are weak or reduced against the parent protein; the word gives no strength.

Sequences of proteins named here, by UniProt entry; tags and fusion partners are left off. A change or cut given only in a name is not applied to a line headed by its entry. A line that says so, or that is headed by a name, gives the form on record, which may keep a tag or linker.
tau paired helical filaments (TAU PHF) isolated from AD brain homogenates (P10636, form named): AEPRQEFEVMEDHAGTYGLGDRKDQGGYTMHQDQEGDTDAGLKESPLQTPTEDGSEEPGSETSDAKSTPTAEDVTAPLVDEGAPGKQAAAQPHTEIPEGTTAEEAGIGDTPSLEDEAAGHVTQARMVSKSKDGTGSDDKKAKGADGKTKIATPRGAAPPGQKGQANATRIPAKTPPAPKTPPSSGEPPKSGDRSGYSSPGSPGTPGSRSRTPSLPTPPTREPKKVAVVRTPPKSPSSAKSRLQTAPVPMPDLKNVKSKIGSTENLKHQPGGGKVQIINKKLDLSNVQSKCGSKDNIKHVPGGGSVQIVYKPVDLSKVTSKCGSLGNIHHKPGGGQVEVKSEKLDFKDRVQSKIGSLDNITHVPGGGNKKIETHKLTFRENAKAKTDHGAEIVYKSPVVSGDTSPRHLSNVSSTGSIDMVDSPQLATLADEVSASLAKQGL

For this experiment, the target named is tau paired helical filaments (TAU PHF) isolated from AD brain homogenates (UniProt P10636). The experiment can be described thus: SPR, antibody at 66.7 nM.

B1: ALZ.4G1 (antibody, V domains shown)
VH: EEHLVESGGALVQPGGSLRLSCEASGFTFRSYWMTWVRQAPGKGLEWLANIKQDGSDYYYVDSVKGRFTISRDNAKNTLYLQMNNLRADDTAVYFCARDARYRDTTWPQYYFYYFMDVWGKGTTVTVSS
VL: DIQLTQSPSSLSASIGDRVTVTCRASQSISNYLNWYQQKPGKAPKLLIYAASNLHTGVPSRFSGSGSGTHFTLTISSLQPEDFATYYCQLSYNNPRTFGPGTTVDIR
As for B1, the binding entry is “binds”.

These data come from patent US20220227846A1.
